Laboratory results taken from article doi:10.1101/2022.09.15.508097.
These are yes or no findings as the source states them, for the method shown. Some binding calls cover weakened binding; strength is not graded here. For part of these data: Sequences can lack the tags named with a protein.

The chains behind the UniProt entries cited, without tags or fusion partners. Where a name states a change or a piece, a line headed by the entry shows the natural chain unless it says otherwise. Residues count along the entry.
UniProt Q9C0D4: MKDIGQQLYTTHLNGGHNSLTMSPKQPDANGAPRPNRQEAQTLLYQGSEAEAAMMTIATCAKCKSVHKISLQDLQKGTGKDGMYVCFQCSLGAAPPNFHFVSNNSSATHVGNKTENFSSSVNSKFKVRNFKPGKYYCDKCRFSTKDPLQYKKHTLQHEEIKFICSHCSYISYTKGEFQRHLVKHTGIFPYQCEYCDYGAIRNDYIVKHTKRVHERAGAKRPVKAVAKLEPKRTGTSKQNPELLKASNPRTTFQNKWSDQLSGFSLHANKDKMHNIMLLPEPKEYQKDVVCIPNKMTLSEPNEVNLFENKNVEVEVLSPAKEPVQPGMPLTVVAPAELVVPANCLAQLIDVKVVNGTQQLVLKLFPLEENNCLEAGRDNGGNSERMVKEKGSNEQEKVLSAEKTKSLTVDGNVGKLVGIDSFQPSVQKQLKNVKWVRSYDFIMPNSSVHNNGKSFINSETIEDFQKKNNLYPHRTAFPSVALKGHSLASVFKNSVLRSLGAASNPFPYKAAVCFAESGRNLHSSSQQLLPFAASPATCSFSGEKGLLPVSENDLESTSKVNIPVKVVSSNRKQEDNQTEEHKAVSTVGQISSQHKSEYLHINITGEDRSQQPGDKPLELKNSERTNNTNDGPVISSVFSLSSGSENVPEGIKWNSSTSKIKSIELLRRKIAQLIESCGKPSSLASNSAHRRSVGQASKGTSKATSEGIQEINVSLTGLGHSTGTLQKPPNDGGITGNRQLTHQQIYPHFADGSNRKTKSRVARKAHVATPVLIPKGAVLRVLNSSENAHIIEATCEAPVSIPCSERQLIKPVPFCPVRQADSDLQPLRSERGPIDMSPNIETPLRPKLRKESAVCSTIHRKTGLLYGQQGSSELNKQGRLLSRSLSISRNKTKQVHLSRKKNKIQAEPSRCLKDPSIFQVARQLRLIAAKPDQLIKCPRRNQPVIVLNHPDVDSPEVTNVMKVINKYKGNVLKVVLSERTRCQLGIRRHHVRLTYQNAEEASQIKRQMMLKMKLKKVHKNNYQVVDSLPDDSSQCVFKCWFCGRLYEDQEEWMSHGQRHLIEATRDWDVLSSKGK
TetR-EYFP-ZNF518B^344–1074: residues 344-1074 of Q9C0D4
TetR-EYFP-ZNF518B^555–1074: residues 555-1074 of Q9C0D4
TetR-EYFP-ZNF518B^878–1074: residues 878-1074 of Q9C0D4
UniProt Q96KQ7: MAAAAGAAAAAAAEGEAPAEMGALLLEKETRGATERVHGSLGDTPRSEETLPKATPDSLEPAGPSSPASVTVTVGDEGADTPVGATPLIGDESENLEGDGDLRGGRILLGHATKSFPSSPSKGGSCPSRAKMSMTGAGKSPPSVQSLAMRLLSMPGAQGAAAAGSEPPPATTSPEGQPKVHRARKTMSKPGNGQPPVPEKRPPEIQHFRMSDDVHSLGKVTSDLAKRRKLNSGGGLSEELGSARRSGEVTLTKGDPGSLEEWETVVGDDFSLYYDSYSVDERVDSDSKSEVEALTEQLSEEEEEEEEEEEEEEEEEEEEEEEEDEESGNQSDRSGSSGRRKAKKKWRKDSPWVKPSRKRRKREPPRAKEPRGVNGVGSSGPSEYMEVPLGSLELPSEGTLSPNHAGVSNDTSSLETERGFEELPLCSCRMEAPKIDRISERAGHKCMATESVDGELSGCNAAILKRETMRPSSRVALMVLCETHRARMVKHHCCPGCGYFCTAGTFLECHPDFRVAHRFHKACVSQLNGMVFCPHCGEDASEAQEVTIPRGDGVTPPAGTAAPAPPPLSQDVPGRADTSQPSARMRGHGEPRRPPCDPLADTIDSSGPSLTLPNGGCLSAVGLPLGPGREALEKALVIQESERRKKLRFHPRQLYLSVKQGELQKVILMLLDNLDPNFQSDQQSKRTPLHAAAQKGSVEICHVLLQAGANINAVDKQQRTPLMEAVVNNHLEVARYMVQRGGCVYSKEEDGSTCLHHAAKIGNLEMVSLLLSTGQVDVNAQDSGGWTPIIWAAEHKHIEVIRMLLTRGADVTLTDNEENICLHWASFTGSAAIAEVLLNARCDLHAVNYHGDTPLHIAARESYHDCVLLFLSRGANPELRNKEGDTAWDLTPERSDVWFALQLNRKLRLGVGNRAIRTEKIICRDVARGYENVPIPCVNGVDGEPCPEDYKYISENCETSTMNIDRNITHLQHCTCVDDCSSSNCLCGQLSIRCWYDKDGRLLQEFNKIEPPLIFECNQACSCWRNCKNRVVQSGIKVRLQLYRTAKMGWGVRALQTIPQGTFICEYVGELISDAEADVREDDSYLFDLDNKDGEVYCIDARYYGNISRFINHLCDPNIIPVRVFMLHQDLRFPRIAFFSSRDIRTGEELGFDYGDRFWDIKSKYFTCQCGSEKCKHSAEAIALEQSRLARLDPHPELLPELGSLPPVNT

Assays:
Assay in all cases: fluorescence microscopy-based interaction-trap
[1] = molecular target: TetR-EYFP-ZNF518B^555–1074 (human) (UniProt Q9C0D4)
[2] = molecular target: TetR-EYFP-ZNF518A^1–970 (human) (UniProt Q6AHZ1)
[3] = molecular target: TetR-EYFP-ZNF518B^WT (human) (UniProt Q9C0D4)
[4] = molecular target: TetR-EYFP-ZNF518A^1317–1483 (human) (UniProt Q6AHZ1)
[5] = molecular target: TetR-EYFP-ZNF518B^344–1074 (human) (UniProt Q9C0D4)
[6] = molecular target: TetR-EYFP-ZNF518B^878–1074 (human) (UniProt Q9C0D4)
[7] = molecular target: TetR-EYFP-ZNF518A^971–1483 (human) (UniProt Q6AHZ1)
[8] = molecular target: T1, TetR-EYFP-ZNF518A^WT (human) (UniProt Q6AHZ1)
T1 sequence: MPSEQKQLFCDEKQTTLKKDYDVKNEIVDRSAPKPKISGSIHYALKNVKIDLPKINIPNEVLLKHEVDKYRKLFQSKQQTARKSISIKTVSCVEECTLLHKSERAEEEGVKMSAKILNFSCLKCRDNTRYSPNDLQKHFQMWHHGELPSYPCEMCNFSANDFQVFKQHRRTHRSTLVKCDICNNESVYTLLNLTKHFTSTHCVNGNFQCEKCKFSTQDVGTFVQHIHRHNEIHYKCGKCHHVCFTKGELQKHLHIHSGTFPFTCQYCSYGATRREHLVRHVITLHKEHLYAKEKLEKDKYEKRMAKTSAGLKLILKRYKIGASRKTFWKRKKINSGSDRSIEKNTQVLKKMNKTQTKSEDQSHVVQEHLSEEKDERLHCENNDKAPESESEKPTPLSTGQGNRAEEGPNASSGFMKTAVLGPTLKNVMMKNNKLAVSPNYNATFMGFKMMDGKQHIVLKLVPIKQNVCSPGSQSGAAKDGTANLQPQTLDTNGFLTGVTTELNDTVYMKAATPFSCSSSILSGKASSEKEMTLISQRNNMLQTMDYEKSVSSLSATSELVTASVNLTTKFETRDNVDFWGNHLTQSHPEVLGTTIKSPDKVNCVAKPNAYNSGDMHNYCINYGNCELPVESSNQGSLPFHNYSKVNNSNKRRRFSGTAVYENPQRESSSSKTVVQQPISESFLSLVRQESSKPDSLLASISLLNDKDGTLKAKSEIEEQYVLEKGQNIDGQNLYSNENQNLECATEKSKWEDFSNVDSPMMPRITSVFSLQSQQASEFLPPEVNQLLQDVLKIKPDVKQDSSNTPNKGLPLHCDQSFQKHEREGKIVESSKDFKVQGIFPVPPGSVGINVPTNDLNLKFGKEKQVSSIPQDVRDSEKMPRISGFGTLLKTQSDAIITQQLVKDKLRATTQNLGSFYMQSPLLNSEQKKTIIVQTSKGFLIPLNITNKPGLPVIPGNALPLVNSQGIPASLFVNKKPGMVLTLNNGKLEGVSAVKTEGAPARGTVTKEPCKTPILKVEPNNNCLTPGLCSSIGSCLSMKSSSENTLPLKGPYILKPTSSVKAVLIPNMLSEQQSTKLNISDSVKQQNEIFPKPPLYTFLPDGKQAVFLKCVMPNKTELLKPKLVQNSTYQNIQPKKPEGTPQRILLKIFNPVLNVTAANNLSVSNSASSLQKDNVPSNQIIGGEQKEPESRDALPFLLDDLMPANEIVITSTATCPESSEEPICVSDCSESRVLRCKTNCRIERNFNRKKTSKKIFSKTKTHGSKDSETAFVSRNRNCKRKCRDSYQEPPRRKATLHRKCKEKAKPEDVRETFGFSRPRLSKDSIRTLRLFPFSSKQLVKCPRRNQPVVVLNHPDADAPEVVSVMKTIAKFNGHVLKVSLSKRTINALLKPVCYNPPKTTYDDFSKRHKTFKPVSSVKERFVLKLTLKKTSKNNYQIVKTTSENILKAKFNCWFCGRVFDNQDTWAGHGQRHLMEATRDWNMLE

[9] = molecular target: TetR-EYFP-ZNF518A^971–1321 (human) (UniProt Q6AHZ1)

Measured: binding

Halo-G9a (from UniProt Q96KQ7 1-1210) (enzyme)
binds: [1] | [2] | [3] | [4] | [5] | [6] | [7] | [8] | [9]
